No constants are given. Whether binding was seen depends on the method and setting. Binding seen in cells or lysates may run through a third protein. Here binding means that the protein was enriched with, or labelled near, the bait; the list need not be complete. Tags and fused reporters may be left off the sequences shown.
T1: Flag-VRK1 (Vaccinia-related kinase 1) (UniProt Q99986)
T1 sequence: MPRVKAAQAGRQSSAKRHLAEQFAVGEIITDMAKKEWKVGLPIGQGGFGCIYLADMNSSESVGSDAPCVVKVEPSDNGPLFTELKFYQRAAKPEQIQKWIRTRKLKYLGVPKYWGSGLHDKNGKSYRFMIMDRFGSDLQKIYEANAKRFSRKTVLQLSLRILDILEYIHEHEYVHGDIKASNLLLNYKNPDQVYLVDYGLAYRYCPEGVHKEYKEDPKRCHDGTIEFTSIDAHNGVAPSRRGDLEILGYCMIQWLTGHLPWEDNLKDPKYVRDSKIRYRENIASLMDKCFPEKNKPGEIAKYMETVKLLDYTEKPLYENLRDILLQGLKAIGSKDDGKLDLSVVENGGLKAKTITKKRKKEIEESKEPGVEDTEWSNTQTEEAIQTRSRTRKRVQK

Protein sequences, listed by entry. Tags and fused reporters are not part of them.
UniProt Q16531: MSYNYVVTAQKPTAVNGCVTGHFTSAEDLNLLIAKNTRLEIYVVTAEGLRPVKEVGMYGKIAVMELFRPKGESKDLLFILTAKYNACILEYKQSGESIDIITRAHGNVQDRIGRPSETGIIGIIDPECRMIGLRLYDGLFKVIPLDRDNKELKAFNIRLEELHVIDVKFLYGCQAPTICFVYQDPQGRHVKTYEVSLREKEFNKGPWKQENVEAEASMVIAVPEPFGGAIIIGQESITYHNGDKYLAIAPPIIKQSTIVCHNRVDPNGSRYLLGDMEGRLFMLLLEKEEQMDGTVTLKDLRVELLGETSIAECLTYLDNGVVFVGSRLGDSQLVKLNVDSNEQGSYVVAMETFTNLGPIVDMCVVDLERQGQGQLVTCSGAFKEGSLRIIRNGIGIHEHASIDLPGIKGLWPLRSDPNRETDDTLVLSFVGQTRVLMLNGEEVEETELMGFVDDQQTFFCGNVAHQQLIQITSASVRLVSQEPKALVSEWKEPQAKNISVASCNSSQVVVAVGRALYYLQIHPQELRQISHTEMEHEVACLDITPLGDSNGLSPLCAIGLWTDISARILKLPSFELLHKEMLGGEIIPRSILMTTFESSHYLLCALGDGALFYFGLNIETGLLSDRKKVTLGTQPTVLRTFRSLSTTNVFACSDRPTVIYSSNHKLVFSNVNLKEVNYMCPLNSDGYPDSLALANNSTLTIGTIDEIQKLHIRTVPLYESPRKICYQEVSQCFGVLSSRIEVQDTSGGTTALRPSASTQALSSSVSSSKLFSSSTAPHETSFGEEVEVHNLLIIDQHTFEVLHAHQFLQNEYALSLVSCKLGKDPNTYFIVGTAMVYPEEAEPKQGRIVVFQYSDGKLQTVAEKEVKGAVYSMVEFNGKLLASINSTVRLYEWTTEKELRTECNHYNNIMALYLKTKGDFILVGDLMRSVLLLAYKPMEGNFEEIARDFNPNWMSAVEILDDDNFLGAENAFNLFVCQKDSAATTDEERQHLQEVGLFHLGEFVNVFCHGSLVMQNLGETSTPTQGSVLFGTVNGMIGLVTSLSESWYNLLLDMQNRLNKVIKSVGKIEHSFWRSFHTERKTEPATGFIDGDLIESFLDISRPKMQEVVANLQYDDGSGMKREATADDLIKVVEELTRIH
UniProt Q93009: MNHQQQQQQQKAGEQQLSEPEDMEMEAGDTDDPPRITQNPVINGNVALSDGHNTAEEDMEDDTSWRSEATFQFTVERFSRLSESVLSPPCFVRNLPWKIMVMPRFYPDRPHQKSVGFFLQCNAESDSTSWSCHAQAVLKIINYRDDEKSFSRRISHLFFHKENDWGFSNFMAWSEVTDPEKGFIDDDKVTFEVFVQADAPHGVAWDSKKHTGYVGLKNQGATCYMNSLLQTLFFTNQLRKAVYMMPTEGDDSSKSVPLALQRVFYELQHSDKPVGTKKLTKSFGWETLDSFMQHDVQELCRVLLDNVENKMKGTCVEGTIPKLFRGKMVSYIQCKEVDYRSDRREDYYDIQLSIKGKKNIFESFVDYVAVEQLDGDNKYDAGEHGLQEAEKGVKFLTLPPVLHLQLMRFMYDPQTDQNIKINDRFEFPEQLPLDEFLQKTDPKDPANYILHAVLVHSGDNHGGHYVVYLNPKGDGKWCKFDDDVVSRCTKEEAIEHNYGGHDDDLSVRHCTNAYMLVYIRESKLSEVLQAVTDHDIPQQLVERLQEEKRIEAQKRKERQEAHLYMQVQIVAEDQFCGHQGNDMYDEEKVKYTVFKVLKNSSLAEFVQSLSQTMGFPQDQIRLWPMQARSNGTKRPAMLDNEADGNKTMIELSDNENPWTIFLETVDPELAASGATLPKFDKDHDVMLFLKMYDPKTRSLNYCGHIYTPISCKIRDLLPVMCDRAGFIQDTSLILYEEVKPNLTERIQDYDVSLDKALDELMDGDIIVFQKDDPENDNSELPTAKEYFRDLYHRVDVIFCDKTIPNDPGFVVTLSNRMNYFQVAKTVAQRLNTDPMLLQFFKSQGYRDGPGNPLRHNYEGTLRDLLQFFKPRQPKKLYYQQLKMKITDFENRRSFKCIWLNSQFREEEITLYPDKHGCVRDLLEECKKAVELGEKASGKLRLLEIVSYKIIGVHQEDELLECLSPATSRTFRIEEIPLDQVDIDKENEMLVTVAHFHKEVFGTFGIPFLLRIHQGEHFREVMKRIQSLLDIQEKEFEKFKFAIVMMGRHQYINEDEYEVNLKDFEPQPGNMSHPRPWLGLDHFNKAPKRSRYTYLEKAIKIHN
UniProt Q86WJ1: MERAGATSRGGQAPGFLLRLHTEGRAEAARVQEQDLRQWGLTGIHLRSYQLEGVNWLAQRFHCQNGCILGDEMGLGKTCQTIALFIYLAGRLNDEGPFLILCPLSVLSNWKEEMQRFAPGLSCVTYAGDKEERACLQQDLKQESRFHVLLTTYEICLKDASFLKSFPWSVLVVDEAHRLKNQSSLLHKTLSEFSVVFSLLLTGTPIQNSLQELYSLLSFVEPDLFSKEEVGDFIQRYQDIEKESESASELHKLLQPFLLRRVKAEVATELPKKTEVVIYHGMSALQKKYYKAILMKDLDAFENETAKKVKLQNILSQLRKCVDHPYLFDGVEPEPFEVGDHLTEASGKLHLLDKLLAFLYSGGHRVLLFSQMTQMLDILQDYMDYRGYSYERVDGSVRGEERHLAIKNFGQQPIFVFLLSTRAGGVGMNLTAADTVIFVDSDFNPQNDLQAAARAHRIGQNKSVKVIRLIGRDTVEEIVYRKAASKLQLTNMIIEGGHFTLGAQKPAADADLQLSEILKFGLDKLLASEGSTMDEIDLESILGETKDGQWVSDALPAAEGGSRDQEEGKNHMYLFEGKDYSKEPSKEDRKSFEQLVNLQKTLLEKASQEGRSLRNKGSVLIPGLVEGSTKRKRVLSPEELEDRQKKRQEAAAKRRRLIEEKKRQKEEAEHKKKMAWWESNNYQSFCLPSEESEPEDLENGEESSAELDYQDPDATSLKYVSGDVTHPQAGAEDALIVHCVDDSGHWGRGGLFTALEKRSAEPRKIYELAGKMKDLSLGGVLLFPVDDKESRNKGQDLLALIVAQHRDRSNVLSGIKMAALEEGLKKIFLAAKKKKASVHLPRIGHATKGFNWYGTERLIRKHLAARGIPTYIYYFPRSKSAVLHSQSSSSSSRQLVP

B1: Barrier-to-autointegration factor (BAF) (protein, UniProt O75531 1-89)
chain: MTTSQKHRDFVAEPMGEKPVGSLAGIGEVLGKKLEERGFDKAYVVLGQFLVLKKDEDLFREWLKDTCGANAKQSRDCFGCLREWCDAFL

Biological target: T1, Flag-VRK1 (Vaccinia-related kinase 1)
Test: affinity purification with mass spectrometry; VRK1 immunoprecipitated with magnetic beads, SDS-PAGE, Coomassie staining, excised gel digested, LC-MS/MS (Q-Exactive); cell line not stated

Molecule	binding
DDB1 (from UniProt Q16531 1-1140)	binds
USP7 (from UniProt Q93009 1-1102)	binds
endogenous CHD1L (chromodomain helicase DNA binding protein 1-like) (from UniProt Q86WJ1 1-897)	binds
B1	binds

Source: paper PMC12000354
